Measured values reported in patent US12349708B2, “Use and methods of 1,3-propanediol to improve taste and/or off-taste qualities” (Primient Covation LLC, priority 2019, dated 2025).

Tested on: experienced and trained panelist
Assay: Sensorial comparison of energy shot prototypes at various malic acid and sucralose levels with and without bioPDO (Example 5)
Type: in vivo, human
Conditions: 0.1% bioPDO; midpoint between Exp #8 and Exp #9
Experimental: • 1. Take 1st sip from a full 30 mL medicine cup, taste and swallow the 1st sample, wait 10 seconds, then take a 2nd sip and lock it into memory. Wait for 10 seconds. • 2. Proceed with 2nd sample. Taste 1st sip of the 2nd sample, wait for 10 seconds, and then use the 2nd sip to compare to the 2nd sip (or 3rd sip) of the 1st sample.
Each paired sample evaluation was repeated in triplicate with at least a 10-minute break and a carbon-treated water rinse.
The theory is to try to establish a reduced amount (concentration) of malic acid to match its sourness intensity of our energy shot prototype w/bioPDO to the control, energy shot prototype without bioPDO. Secondly, if this adjustment of lowering the malic acid concentration results in increasing sweetness, an additional step will be performed to reduce the amount of sucralose until both sourness and sweetness taste match that of the control w/o bioPDO. Below are the comparative sensorial evaluation results in Tables 33-36 including their specific sample formulations, observations, and results. Keywords of SUL, MA and CAF are sucralose, malic acid, and caffeine, respectively.

With `OCCCO` [PDO, 1,3-propanediol] the “reduction of malic acid concentration achievable” value was at most 38% and the “reduction of sucralose concentration achievable” value was at most 20%.
